These are yes or no findings as the source states them, for the method shown. A result given as binding can be weak or reduced; the word gives no strength.
What was measured:
[1] = biological target: AtaR2 antitoxin (Escherichia coli O157:H7 str. Sakai) (UniProt Q8X700); test: SEC; both purified
[2] = biological target: AtaR2 antitoxin (Escherichia coli O157:H7 str. Sakai) (UniProt Q8X700); test: tandem affinity purification

“AtaT2 toxin (from UniProt Q8X6Z9) (enzyme)” was tested, and the binding [1] was “binds” and the binding [2] was “binds”.

From article PMC7470980, “Mechanism of translation inhibition by type II GNAT toxin AtaT2” (Nucleic Acids Research, 2020)
